Assay results: US20150126534A1, “ENZYME AND RECEPTOR MODULATION” (Chroma Therapeutics Ltd, priority 2005, published 2015)

System: HCT116 (non-monocytic cell line)
Assay: Cell proliferation inhibition assay (WST-1), HCT116
Format: cell-based
Conditions: Homo sapiens, HCT-116, read-out: Cell proliferation IC50 nM (HCT116)
Description: Following 24 h of growth cells were treated with compound. Plates were then re-incubated for a further 72-96 h before a WST-1 cell viability assay was conducted according to the suppliers (Roche Applied Science) instructions.
Data were expressed as a percentage inhibition of the control, measured in the absence of inhibitor, as follows: —
where S^i is the signal in the presence of inhibitor and S^o is the signal in the presence of DMSO.
Dose response curves were generated from 8 concentrations (top final concentration 10 μM, with 3-fold dilutions), using 6 replicates.

In the case of `O=C(CCCCCCC(=O)Nc1ccccc1)NO` [Compound 7, Suberoylanilide hydroxamic acid, reference compound], the IC50 is reported as 700 nM.
